Experiment [1] has as its target T1, protein phosphatase Mg2+/Mn2+ dependent 1F (PPM1F) (human (endogenous in MDA-MB-231)) (UniProt P49593).
T1 sequence: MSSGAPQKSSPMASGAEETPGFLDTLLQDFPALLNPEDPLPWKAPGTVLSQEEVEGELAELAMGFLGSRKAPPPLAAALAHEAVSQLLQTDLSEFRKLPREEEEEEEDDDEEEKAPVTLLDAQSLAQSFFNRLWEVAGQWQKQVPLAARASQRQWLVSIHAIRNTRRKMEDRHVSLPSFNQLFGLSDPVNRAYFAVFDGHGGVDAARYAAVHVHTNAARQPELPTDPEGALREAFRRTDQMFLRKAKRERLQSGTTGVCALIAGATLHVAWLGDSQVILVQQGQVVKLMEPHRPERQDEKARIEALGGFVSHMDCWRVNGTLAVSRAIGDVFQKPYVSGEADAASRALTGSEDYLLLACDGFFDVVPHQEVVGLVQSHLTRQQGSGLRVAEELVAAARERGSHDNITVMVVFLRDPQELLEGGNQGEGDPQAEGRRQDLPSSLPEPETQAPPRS
The experiment can be described thus: co-IP; 200 ug lysate of MDA-MB-231 cells treated with or without nicotine (10 uM, 24 hours); precipitated with anti-p-p53, anti-p-BAX or anti-PPM1F antibodies (2 ug) and protein A-agarose beads; Western blotting for p53 (total), p-p53 (Ser-20), BAX (total), p-BAX (Ser-184) and PPM1F. For orientation: Immunoblotting shows a protein as a band on a membrane.

Sequences of proteins named here, by UniProt entry; tags and fusion partners are left off.
UniProt Q07812: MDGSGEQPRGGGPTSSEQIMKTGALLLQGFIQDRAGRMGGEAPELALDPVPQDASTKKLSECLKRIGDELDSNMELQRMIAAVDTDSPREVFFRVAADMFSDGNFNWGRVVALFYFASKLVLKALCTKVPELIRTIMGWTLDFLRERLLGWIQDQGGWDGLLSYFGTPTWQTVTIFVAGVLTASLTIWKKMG

Experiment [2] addresses T2, recombinant PPM1F with a His Tag (6x) and a c-Myc-Epitope-Tag (human) (UniProt P49593).
T2 sequence: T1 sequence
The experiment can be described thus: FRET or BRET; acceptor photobleaching FRET by confocal microscopy; cells treated with nicotine (10 uM, 24 hours) and stained with anti-PPM1F (FITC-labeled, donor) and anti-p-p53 (Ser-20) or anti-p-BAX (Ser-184) (rhodamine-labeled, acceptor) antibodies.

These are yes or no findings as the source states them, for the method shown. Binding seen in cells or lysates may run through a third protein. Some entries that bind do so weakly or less than the wild type. For part of these data: Where a sequence is shown, tags or fusion partners need not be part of it.

BAX (total) (from UniProt Q07812 1-192): the binding entry in experiment [1] was “binds”.

Regarding “phosphorylated BAX (Ser-184) (from UniProt Q07812 1-192)”, the binding result in experiment [2] and in experiment [1] was “binds” each time.

The values are drawn from paper PMC5363601.
